The source of these data is publication PMC4746701.

Chains of the proteins cited; added tags and fusions are not shown. Lines headed by an entry give the natural chain unless they say otherwise; changes in a name come on top. A line that says so, or that is headed by a name, gives the form on record, which may keep a tag or linker.
UniProt Q9Z2G6: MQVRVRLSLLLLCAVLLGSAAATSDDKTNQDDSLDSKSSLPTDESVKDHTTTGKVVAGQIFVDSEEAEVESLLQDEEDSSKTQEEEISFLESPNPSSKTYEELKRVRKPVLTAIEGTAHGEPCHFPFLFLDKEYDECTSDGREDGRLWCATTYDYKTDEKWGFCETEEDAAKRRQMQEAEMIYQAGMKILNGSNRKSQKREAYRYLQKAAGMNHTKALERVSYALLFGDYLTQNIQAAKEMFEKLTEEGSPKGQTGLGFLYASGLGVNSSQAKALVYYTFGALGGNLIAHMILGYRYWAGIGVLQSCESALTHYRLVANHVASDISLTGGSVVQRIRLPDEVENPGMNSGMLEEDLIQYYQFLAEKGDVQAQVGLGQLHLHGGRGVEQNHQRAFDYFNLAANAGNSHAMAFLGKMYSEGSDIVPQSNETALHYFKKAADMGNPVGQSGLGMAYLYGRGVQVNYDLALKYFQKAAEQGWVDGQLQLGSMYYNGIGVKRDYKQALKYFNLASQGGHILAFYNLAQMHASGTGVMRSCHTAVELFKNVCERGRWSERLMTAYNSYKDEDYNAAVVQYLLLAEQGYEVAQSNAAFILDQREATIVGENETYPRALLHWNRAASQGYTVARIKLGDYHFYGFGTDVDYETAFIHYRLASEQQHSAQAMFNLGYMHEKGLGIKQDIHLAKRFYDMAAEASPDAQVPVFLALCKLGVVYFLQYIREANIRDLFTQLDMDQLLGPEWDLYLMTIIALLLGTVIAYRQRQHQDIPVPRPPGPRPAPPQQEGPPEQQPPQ
SEL1L^cent-KDEL (SEL1L^cent-FLAG-KDEL, SEL1L^cent-HA-KDEL) (Q9Z2G6, form named): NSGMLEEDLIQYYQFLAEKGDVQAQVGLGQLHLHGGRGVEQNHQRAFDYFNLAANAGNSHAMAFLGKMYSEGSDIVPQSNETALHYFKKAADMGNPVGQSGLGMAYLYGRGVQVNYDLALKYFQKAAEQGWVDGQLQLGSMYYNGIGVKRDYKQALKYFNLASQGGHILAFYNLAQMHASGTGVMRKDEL

The target in experiment [1] is full-length mouse SEL1L (SEL1L-HA and SEL1L-FLAG) (mouse) (UniProt Q9Z2G6). In words: co-IP; HEK293T co-transfected; lysis in 50 mM Tris pH 7.4, 150 mM NaCl, 0.1% Triton X-100, 5% glycerol; IP anti-FLAG and blot anti-HA (Fig. 4A) or IP anti-HA and blot anti-FLAG (Fig. 4D).
Experiment [2] shares this target. In words: co-IP; competition: HEK293T co-transfected with SEL1L-HA, SEL1L-FLAG and increasing doses of a KDEL-tagged SEL1L fragment; IP anti-FLAG, blot anti-HA (Fig. 4E, F).

No constants are given. Whether binding was seen depends on the method and setting. Binding seen in cells or lysates may run through a third protein. Some entries that bind do so weakly or less than the wild type.

Consider “SEL1L^cent expressed in HEK293T behind the SEL1L signal peptide (no KDEL) (from UniProt Q9Z2G6 348-533) (domain or fragment)”, for which, in experiment [1], the binding result is given as “binds”.
On the same count and under the same terms, the same measure for “SEL1L^cent-KDEL (SEL1L^cent-FLAG-KDEL, SEL1L^cent-HA-KDEL) (from UniProt Q9Z2G6 348-533) (domain or fragment)”: “binds”.
For the substance “full-length mouse SEL1L (SEL1L-HA and SEL1L-FLAG) (from UniProt Q9Z2G6 22-790)”, the binding entry in experiment [2] and in experiment [1] was “binds” each time.
